# Assay results: PubChem BioAssay AID1508600 (Functional Genomics Laboratory (NCATS/FGL), 2020)
# About 3,700 (7%) of roughly 53,000 sequences were called active.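 Rule for the calls: active = gene knockdowns whose robust z-score for IL-1 alpha signal is at least 2 or at most -2, so actives lie on both sides; inactive = the rest.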 This is one part of the list.
# Experiment: Components of the Cytosolic LPS Sensing Pathway: Gene Identification via Genome-wide siRNA Screen;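 note: robust z of the log signal after scaling to non-targeting control siRNA wells of the plate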
# Conditions: RAW264.7 macrophages, IL-1a HTRF, actives lie on both sides, screened at 100 nM (by protocol), cells primed 5 h with Pam3CSK4 first
# Outline: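 Knockdown: 100 nM siRNA, 48h, RAW264.7. Stimulation: Pam3CSK4 5 h, then LipidA via TransIT-TKO 24 h. Output: supernatant IL-1a HTRF, negative-control-normalized, log robust z-score; viability by CellTiter-Glo.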
row,Sequence,z-score
1,GGAUACCAUUGUGGUCGCATT against Hck,inactive: -0.406
2,GCUACAGCACAUGGGAUUCTT against Rhbdd3,inactive: -0.0382
3,GAAUUGUCUUACUUGGAAATT against Gimap4,active: 2.05
4,GGAGGAUGGUUUCAAUUCUTT against Pdha2,inactive: 1.2
5,GGUACCAGACCUCAUAGUUTT against Cep95,active: 2.16
6,GGAUAUAAAUGACAACUCGTT against Pcdhb5,inactive: -0.256
7,GGGUAUAAGAGACAAGUAUTT against Cplx1,inactive: -1.8
8,GGAAGAGCAGGAGGAAACATT against Mea1,active: -2.01
9,GGUGUACAACGUAUUCAUATT against Suv39h1,inactive: 0.728
10,GCCUUAACUAUGUUGUCUATT against Mgst1,inactive: 0.893
11,GGCAUCCACCCUAAGGUCATT against Keap1,inactive: 1.03
12,GGAUGCUACAAAUUCACCUTT against Tma16,inactive: -1.04
13,GCCUGUCCUGUGAUGACAUTT against Olfr406,inactive: -1.96
14,GGAACUAAAAGGACCCAAUTT against Tut1,inactive: 0.215
15,GGUUUUCUCGCUCAGACCATT against Wt1,inactive: 0.352
16,GCUGGAAGAAAACUUCUAUTT against Jade2,active: 2.49
17,GGUUCUCAAGGAAUUGCCCTT against R3hdm1,inactive: -0.801
18,GCUAGGACUCAUAAUUUCCTT against Abcc4,inactive: -0.16
19,GGAGGAAGAAUUUAUUGCATT against Ly6i,inactive: 0.775
20,GGGAUUCCAAAAGAAGAAGTT against Acat1,inactive: -0.336
21,GGCUUACAGUUCCAUAUGGTT against Olfr401,inactive: -1.11
22,GCACCAAGUAUAGGAUUAATT against Arhgap32,inactive: 0.809

# Shown with tabs: part of the list above.
row	Sequence	z-score
9	GGUGUACAACGUAUUCAUATT against Suv39h1	inactive: 0.728
10	GCCUUAACUAUGUUGUCUATT against Mgst1	inactive: 0.893
11	GGCAUCCACCCUAAGGUCATT against Keap1	inactive: 1.03
12	GGAUGCUACAAAUUCACCUTT against Tma16	inactive: -1.04

# Further results.

row,Sequence,z-score
1,GCUUGUUCUCCGAAAAUGGTT against Cdc123,inactive: 0.252
2,GGUCAUGAUACAUGAUCCATT against Htr7,inactive: -1.35
3,GGCAUUAACCUGAGAUGAUTT against Sprr2i,inactive: -1.42
4,CCAAGUCUAAAGGGAAUGGTT against S100a9,inactive: 0.112
5,CCCAUAAGGGUGAAAUUCGTT against Tax1bp1,inactive: 0.444
6,GUGUUCAGGAAGCUGGCAGTT against Klra19,inactive: 1.98
7,GGCUGAAAGAUUGUAUUGATT against Rwdd2b,inactive: -0.601
8,GGCAGACUUUUGACAACUATT against Kcnh5,inactive: 0.933
9,CCAUAUGAGAAGAUGACACTT against Pdcl2,inactive: -1.39
10,GGAUGGAUUCCCAGGAACATT against Crybb1,inactive: -0.332
11,GGUAUGGAUGAAGAACUAGTT against Pdhb,inactive: 1.62
12,GGUUCCUCAUUUGUAGAUGTT against D830050J10Rik,inactive: -1.19
13,GGAAAAUAAGCUGAAAUUCTT against Pygl,inactive: 0.906
14,GGUAGAGCAAUUUCUAACCTT against Hpdl,inactive: 0.793
15,GCUAUUAUUGGGCUUUACCTT against Olfr341,inactive: 0.512
16,CCAUUAUUGGCCCAUGCUCTT against Babam1,active: -2.75
17,GGCACCAUGAACAAGUUACTT against Numbl,inactive: 0.976
18,UGAGUUGUUUCCAGCUAAATT against Uts2b,inactive: -0.506
19,GCUCUUGUUAUACUUAACATT against Hr,inactive: 1.6
20,GGGAUCAGAGAUUUAGCUATT against Vmn1r201,inactive: -1.29
21,GGUAUCAGAGAGCACUUCATT against Surf2,inactive: -0.548
22,GGGUGCUGUGCACUAUUUCTT against Pcnx3,inactive: 0.0153

row,Sequence,z-score
1,CCUGCUGCAUUAUGGUUGATT against Grn,inactive: 0.11
2,GCUAAGCAUGAAAUUACCCTT against Pipox,inactive: 0.6
3,GCUCGUGGCAUGUCUCUAUTT against Doc2g,inactive: 0.379
4,CGAAAUGUUUGGUCAGAUCTT against Masp1,inactive: 1.68
5,CCGUGGAUACUGCAUGUGATT against Dpf1,inactive: 0.98
6,GGGAUACUUGGUGAAUUGGTT against Actr6,inactive: -0.485
7,CCCUAUCGUGAUUUAUUGGTT against C130073F10Rik,inactive: -1.33
8,GGAGCUGAUCCUGAAUCACTT against Tpbg,inactive: 0.383
9,GGAGGUACUUCCGAUUGAGTT against Bpifa3,inactive: 0.125
10,GGCCUGAUCAAGUUUCUGCTT against Psd,inactive: 0.461
11,GGCAUAUAAGGACUUCUACTT against C5ar1,inactive: -0.0324
12,CCAAUGGCGAGACAACUACTT against Aldoa,inactive: 0.182
13,CCAGGUGGGAUAAAUUGAATT against Rpusd4,inactive: -1.46
14,GGAAGUGGAAUAUGUCACCTT against Cd300lf,inactive: -0.206
15,CCAAUUGUACCUUAUCUGGTT against Tnfrsf4,inactive: 0.066
16,CGGACUUUCCCGGUAACUATT against Polr1c,inactive: -1.32
17,GGAAAUCAGAGAGAGGUAUTT against Kank1,inactive: 0.132
18,GCAGGAUUUUCACCAACAGTT against Gh,inactive: -0.215
19,GGAAUGCUUACACACCUCATT against Galns,inactive: 0.742
20,CGGAACAAUUCCAAGAAACTT against Isl2,inactive: 0.716
21,GGAUCACAGUCUCUUCGGUTT against Fgf20,inactive: 0.473
22,GGAGAAGUACGUUUAAAUGTT against G3bp2,inactive: -0.736

row,Sequence,z-score
1,GCCACAGUGACUAUACUAGTT against Cdh16,inactive: 1.02
2,CCCACAUGUCCCGUCUUAUTT against 4930429B21Rik,inactive: 0.276
3,GCAUCCUAUAAUAUGCAUGTT against Cdhr1,inactive: 0.789
4,GCUAGGAUAACCCAGAUUATT against Dph2,inactive: -0.931
5,GGAACUGGCCAAUUACUACTT against Rdm1,inactive: -1.29
6,GCUGAGAGUUAAUUGAGCATT against Abcg8,inactive: 0.0952
7,GCCAUAUACAGGUUCAAAGTT against Msh6,inactive: 0.89
8,GGAUGUUACGAAGAAGAUUTT against Ash1l,inactive: -0.664
9,CGAAGAUUACCUUUCAAGATT against St6galnac3,inactive: 0.371
10,GGAUGAACCAAACCAAUAATT against Mgat4d,active: 2.24
11,GGGAGAAAAAAUCCACGAGTT against Tubg1,inactive: -0.0892
12,GGACUCCUUAGAGAAACUUTT against Prl2b1,inactive: -0.0889
13,GGUCGAGCCAAGAAUUUGUTT against Pigo,inactive: 1.52
14,GGCAUAUACAAGGUAUUCUTT against Olfr393,inactive: -0.22
15,GUUUGAGUCUGGAGACGUGTT against Commd4,inactive: 0.917
16,GGAUAACUCAUUCAGAAUGTT against Capn7,inactive: 0.476
17,CGGCAACUCAACAAGCUUATT against Cbfa2t3,active: 2.38
18,GGAGCUAGUAUUGAGCAACTT against Rnh1,inactive: 1.48
19,GGCAUAUCAACUUUCUCGATT against Oca2,inactive: -0.373
20,GCACCCAUAAGUUCUUAUATT against Hif1an,inactive: 0.258
21,CCUGAUGCGUUACAACAACTT against Tmem222,inactive: -0.74
22,CCUUCAUUGGUUAGCAUGUTT against Rbl2,inactive: -0.424

row,Sequence,z-score
1,GGACAAUAUAGGAUCAACATT against Kmo,inactive: -0.155
2,GCUCUCGUCACUGUGUUACTT against Paip2,inactive: 0.906
3,GGUGAAGUCUUACCUAUACTT against Aacs,inactive: -0.598
4,GGAUCUUGUGUUGUAUAAATT against Etv3,inactive: 0.303
5,CCUAUGGCCGACGAUCAUGTT against Cyp2c23,inactive: 1.15
6,GCUGGAAUAUAGGAAUGUCTT against Pex11g,inactive: -0.0512
7,CCGAUCAAUGGAUUGUUUUTT against Mettl9,inactive: 0.644
8,CCUGUGUUCUGACCUAGAGTT against Hes6,inactive: -1.88
9,GGAAAAGCUACAUUACUUCTT against Trim31,inactive: 0.785
10,GGCUCUAAAGAGACACCUUTT against Olfr498,inactive: 0.0154
11,CGGCUACCAAUCCAAGACATT against Marchf6,inactive: 0.4
12,GGGACGGAGAAAAGCUUUUTT against Olfr419,active: 3.92
13,GCCGACCACAGUACAAGACTT against Bivm,inactive: 1.08
14,GGCUCUAAUGUAAUGAAUCTT against Fgf10,inactive: 0.259
15,CCUCAUUCUGUAAAAGAGATT against Hpcal4,inactive: 0.33
16,GGCAGUGAGUGAGUCACAGTT against Ankfn1,inactive: -1.69
17,GCAAAACCUAACUAUGUUUTT against Mterf3,inactive: -0.879
18,GGACUGUUAACUCUUGGCGTT against Slc7a1,inactive: -1.16
19,GAUCCACCCAUCCUACUGUTT against Rd3,inactive: 0.0984
20,CCAACACAUACCAACAGGUTT against Rbm42,inactive: -0.984
